# Source: paper PMC7819943, “Rice protein-binding microarrays: a tool to detect cis-acting elements near promoter regions in rice”
# By UniProt entry, the sequences of proteins in these tests, tags left out.
# UniProt Q0JBA9, entry or part of it: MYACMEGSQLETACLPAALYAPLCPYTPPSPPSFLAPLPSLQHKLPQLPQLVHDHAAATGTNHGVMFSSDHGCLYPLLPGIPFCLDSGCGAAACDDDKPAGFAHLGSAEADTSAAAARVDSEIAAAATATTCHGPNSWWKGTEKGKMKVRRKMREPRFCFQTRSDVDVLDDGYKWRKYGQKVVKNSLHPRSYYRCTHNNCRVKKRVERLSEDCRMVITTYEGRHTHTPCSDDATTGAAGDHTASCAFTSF
# The other results are listed elsewhere or left out.
# Target: OsWRKY34 (Oryza sativa, UniProt Q0JBA9 1-250)
# Test: protein-binding microarray (RPBM); PBS, 2% BSA, 51.3 ng/ul salmon testes DNA, 50 uM zinc acetate, 200 nM TF, 25 C, 1 h; high values mean tight binding
# Details: protein: recombinant; tags: N-terminal polyhistidine and DsRed monomer fusion (pET32a); label: CyDye5-dUTP incorporated in the synthesized complementary strand; 3' TTTTT single-stranded linker to array surface; dsDNA, one strand shown
# Procedure, shortened: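 Polyhistidine-tagged DsRed fusions of transcription factors, joined at the N-terminus, were expressed in E. coli BL21-CodonPlus and isolated on Ni–NTA. They were incubated at 200 nM for 1 h at 25 °C on a custom Agilent array, double-stranded and BSA-blocked, in PBS with 2% BSA, salmon testes DNA and 50 µM zinc acetate. The binding signal is per-feature fluorescence intensity (arbitrary units) read on an Axon 4000B scanner after washing.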
row,Sequence,binding signal
1,GGGTGGTGATGCATGTGCTTCTACAATCATGTATTGGTTACGGAGTCACCTAGTGCAG,9440 ± 630 fluorescence intensity (a.u.)
2,TTTAATTTAGTCTCATTGCTTCCGATCTATGTAAACAATACGGAGTCACCTAGTGCAG,8360 fluorescence intensity (a.u.)
3,AACTTCTCTTCTAATTTTCTCCGAAACTACTGCTCCAATGCGGAGTCACCTAGTGCAG,8510 fluorescence intensity (a.u.)
4,AGCGCCTCGGGCGCACGGGAGTGGCGTGGTGTGGTGGGGTCGGAGTCACCTAGTGCAG,8170 fluorescence intensity (a.u.)
5,CGTGCAGTTGTATGATTTTCGGGTCCGGTTTTCCTTATAACGGAGTCACCTAGTGCAG,11200 fluorescence intensity (a.u.)
6,CTCTCTCTCTCATTCTCTCTCTCTCTCTCTGCCCCTTTTCCGGAGTCACCTAGTGCAG,8200 fluorescence intensity (a.u.)
7,CAAAACTGCCACCATCCACCCAGAACTGGGTCATCATCACCGGAGTCACCTAGTGCAG,8130 fluorescence intensity (a.u.)
8,GTGTCTGTTTGTGTGTGTAAATCCGATATTACCTGTAATCCGGAGTCACCTAGTGCAG,9760 fluorescence intensity (a.u.)
9,TTGCAGTTTTGTTTTGCTGCAGGAAAATTCGGATTTGTTTCGGAGTCACCTAGTGCAG,8240 fluorescence intensity (a.u.)
10,AGGCTTTCACATTTAACTATTTTATTTTGTCGACATCGTTCGGAGTCACCTAGTGCAG,9090 fluorescence intensity (a.u.)
11,TCCCAATCTTCTGTTATTTATTTATTTTCTTGTTAAAATTCGGAGTCACCTAGTGCAG,9310 fluorescence intensity (a.u.)
12,ACCGCAGCCCATGTCCTTTTCCGTCATTTCACTTCAACTCCGGAGTCACCTAGTGCAG,10800 fluorescence intensity (a.u.)
13,CTATCTCTCACACTGATCCAGGCTCTCTCCACTACTATATCGGAGTCACCTAGTGCAG,8300 fluorescence intensity (a.u.)
14,TCTTTTGGTTTACAACACTTTGTATGCTAGCATTATTTTGCGGAGTCACCTAGTGCAG,8880 fluorescence intensity (a.u.)
15,TTTTTTTGCGGGGAGACATGTTACATATTTGCTTAGGTTACGGAGTCACCTAGTGCAG,8620 fluorescence intensity (a.u.)
16,TCTCAACGACGAAATTCCCTTATCAACTCGGATTCTTTCTCGGAGTCACCTAGTGCAG,9620 fluorescence intensity (a.u.)
17,GGCTGGCGTCCGCGCTTTTCCAGCACCAACTCTCGTACGCCGGAGTCACCTAGTGCAG,9320 fluorescence intensity (a.u.)
18,ATTCACTCTTTCATCACTCACTTTCTCTCTACAGCGGGCACGGAGTCACCTAGTGCAG,8910 fluorescence intensity (a.u.)
19,AAGTCTTCAGGCTTAGCTCGCTTTTATCTTTTTCCGCTGCCGGAGTCACCTAGTGCAG,8120 fluorescence intensity (a.u.)
20,GCCCGGCCCAGTAGATACCACCACCTCACACTCCATTCGCCGGAGTCACCTAGTGCAG,9860 fluorescence intensity (a.u.)
21,CTCTTGCCATCCTCTACCTGCTCTCTCAAACCTTTGGCATCGGAGTCACCTAGTGCAG,10100 fluorescence intensity (a.u.)
22,AACATGATTGTTTTCTCTCACTGTCTTTTTAGAGCATCCACGGAGTCACCTAGTGCAG,9620 fluorescence intensity (a.u.)
23,GCGTCACATAACTAGTAGTATCCTTTTGACTTCCATAAACCGGAGTCACCTAGTGCAG,9730 fluorescence intensity (a.u.)
24,GGTCCTAGGGCTGGGAGGGTATAAACTTAGCTAAGGGCAACGGAGTCACCTAGTGCAG,8870 fluorescence intensity (a.u.)
25,CCTCTCCATCGCCGCCGCCACGGCCCGTGTCGAGGTCGCCCGGAGTCACCTAGTGCAG,8440 fluorescence intensity (a.u.)
26,CTTCGTCGTTCGTCCTGCTGCTTCCGCCGCATCCATCCTGCGGAGTCACCTAGTGCAG,12900 fluorescence intensity (a.u.)
27,CTTCCCGTTACATTACACTGCATTACATTAAATTACATTACGGAGTCACCTAGTGCAG,8500 fluorescence intensity (a.u.)

# Random excerpt: 2 entries already listed
row,Sequence,binding signal
17,GGCTGGCGTCCGCGCTTTTCCAGCACCAACTCTCGTACGCCGGAGTCACCTAGTGCAG,9320 fluorescence intensity (a.u.)
5,CGTGCAGTTGTATGATTTTCGGGTCCGGTTTTCCTTATAACGGAGTCACCTAGTGCAG,11200 fluorescence intensity (a.u.)

# The listing continues:

row,Sequence,binding signal
1,ACTATTAATATATGGTCCCACCTGTCATACACATATTACGCGGAGTCACCTAGTGCAG,10200 fluorescence intensity (a.u.)
2,GACACTAATGTGTGTGAAGGGGAGATTGTTGAATGGTTCCCGGAGTCACCTAGTGCAG,65200 fluorescence intensity (a.u.)
3,AAACTTGCCATTTCTTTTATGGGCCTCAATGTAGGCCCATCGGAGTCACCTAGTGCAG,8940 fluorescence intensity (a.u.)
4,CTCTAAAATACTCCAGTGCTCGGTTATATTCTAGCCTCTACGGAGTCACCTAGTGCAG,8680 fluorescence intensity (a.u.)
5,CACCCATACACGTGTCGCCATCCCAAGCCCTCTGCCTCCTCGGAGTCACCTAGTGCAG,10200 fluorescence intensity (a.u.)
6,AATTCACTCCTGGTTTCTCAAATCAACACCTTTGCTCTCACGGAGTCACCTAGTGCAG,8340 fluorescence intensity (a.u.)
7,TTGTAATCTACTTTTGTCCCGCTTCAAAACCTTGAAATTTCGGAGTCACCTAGTGCAG,9710 fluorescence intensity (a.u.)
8,TAGTATACTCCTTTCGTACGCACACCCCTGCATTCTGCTACGGAGTCACCTAGTGCAG,9030 fluorescence intensity (a.u.)
9,CATGTCTATCTTTCTACTATTTATTTTTTTTTGGCAGAGACGGAGTCACCTAGTGCAG,12700 fluorescence intensity (a.u.)
10,GCCCATAGTACGTTTTCCTGGTATGCTGACTTTTTTTTAGCGGAGTCACCTAGTGCAG,10800 fluorescence intensity (a.u.)
11,GATCCTTCAACACTGTAAACCGTGATTTAGATGCCCATTCCGGAGTCACCTAGTGCAG,9040 fluorescence intensity (a.u.)
12,CCCACGTGACCGCCGCCGCCGCCATCGCGGCCGTCCAATACGGAGTCACCTAGTGCAG,9690 fluorescence intensity (a.u.)
13,GTTCCTCGTTCTTAACTCAAAATTTTAACTTTTTCGTTTTCGGAGTCACCTAGTGCAG,10700 fluorescence intensity (a.u.)
14,CGAACGGTCAAACATATTTAAAAAAGTCAACGGCGTCAAACGGAGTCACCTAGTGCAG,9090 fluorescence intensity (a.u.)
15,CCAGATCCAAGCGTCCATCGCCGCGGCCGCATCCGCCATGCGGAGTCACCTAGTGCAG,8060 fluorescence intensity (a.u.)
16,CACCCAAATATCTTCAGCTCATCGCTCGCCACGTGTCCACCGGAGTCACCTAGTGCAG,10000 fluorescence intensity (a.u.)
17,GGCCGTTTCGTTGGCTGCTGCACATGGCCTCGCCTTGCTTCGGAGTCACCTAGTGCAG,8530 fluorescence intensity (a.u.)
18,CTCTTTCCACACATCATATTTATTTGTCTCTTTTTTGAAACGGAGTCACCTAGTGCAG,9590 fluorescence intensity (a.u.)
19,AGAAAAGGAAAAGGCCGTTCGCCGTCCGTTGACCGCACGCCGGAGTCACCTAGTGCAG,13000 fluorescence intensity (a.u.)
20,GGGTGGCGTGGGACGTGTTTTTGTTGACCGAGCACGGTCCCGGAGTCACCTAGTGCAG,11400 fluorescence intensity (a.u.)
21,CTCACAGATCTCGTCTTATTTTGTATTTTCTCTCTCCATTCGGAGTCACCTAGTGCAG,9440 fluorescence intensity (a.u.)
22,ATAACATCCTTTTTTTTCTTCCTCTTTGTGCTCATCTAGTCGGAGTCACCTAGTGCAG,9160 fluorescence intensity (a.u.)
23,CAAGTTTAGTTGATGTATTTCATTTACATTTGATCTGTTCCGGAGTCACCTAGTGCAG,8760 fluorescence intensity (a.u.)
24,GCGTATATATATATTGCAATATCCGTCTTTTGCATTTGTTCGGAGTCACCTAGTGCAG,8780 fluorescence intensity (a.u.)
25,GTTTGATCGATTTTGTCTCTAATTTTAGGCAACTGGCATTCGGAGTCACCTAGTGCAG,8790 fluorescence intensity (a.u.)
26,GCCGAAACCCGGACACCCAATCCGCCGCAACGGCTCGCAACGGAGTCACCTAGTGCAG,8320 fluorescence intensity (a.u.)
27,ACTATTATTGGTGTGTCTATGGGTTTACCAGGTTCCCATTCGGAGTCACCTAGTGCAG,10600 fluorescence intensity (a.u.)
